In all, about 580,000 compounds went through this assay and about 6,100 (1.1%) were called active. Inconclusive results, whose numbers are uncertain, are shown with a selection of clear calls. Calls follow the shape of the dose curve; as a rule, active = well fitted inhibition curve with a large enough effect; inconclusive = small, poorly fitted or top-dose-only effect, or another doubt; inactive = no such curve, though single readings can be large or run the other way. A potency beside an inconclusive call is a rough fit, not a confirmed value.
Biological target: Polyunsaturated fatty acid lipoxygenase ALOX12 (Homo sapiens) (UniProt P18054)
Experiment: Primary qHTS assay for inhibitors of human arachidonate 12S-lipoxygenase (ALOX12): Round 2
Conditions: purified 12hLO, xylenol orange hydroperoxide absorbance; series mostly up to 108 µM
Summary of the method: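 Purified human 12hLO at 150 nM in 25 mM Hepes, 0.01% Triton X-100, pH 7.0, preincubated 15 min at room temperature with compound. Reaction started with 40 uM arachidonic acid, 30 min at room temperature. Hydroperoxide measured by Fe-xylenol orange, 573/405 nm absorbance ratio.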
Potency is read from the fitted curve at half-maximal effect.

The chains behind the UniProt entries cited, without tags or fusion partners.
UniProt P18054, whole entry, looked up: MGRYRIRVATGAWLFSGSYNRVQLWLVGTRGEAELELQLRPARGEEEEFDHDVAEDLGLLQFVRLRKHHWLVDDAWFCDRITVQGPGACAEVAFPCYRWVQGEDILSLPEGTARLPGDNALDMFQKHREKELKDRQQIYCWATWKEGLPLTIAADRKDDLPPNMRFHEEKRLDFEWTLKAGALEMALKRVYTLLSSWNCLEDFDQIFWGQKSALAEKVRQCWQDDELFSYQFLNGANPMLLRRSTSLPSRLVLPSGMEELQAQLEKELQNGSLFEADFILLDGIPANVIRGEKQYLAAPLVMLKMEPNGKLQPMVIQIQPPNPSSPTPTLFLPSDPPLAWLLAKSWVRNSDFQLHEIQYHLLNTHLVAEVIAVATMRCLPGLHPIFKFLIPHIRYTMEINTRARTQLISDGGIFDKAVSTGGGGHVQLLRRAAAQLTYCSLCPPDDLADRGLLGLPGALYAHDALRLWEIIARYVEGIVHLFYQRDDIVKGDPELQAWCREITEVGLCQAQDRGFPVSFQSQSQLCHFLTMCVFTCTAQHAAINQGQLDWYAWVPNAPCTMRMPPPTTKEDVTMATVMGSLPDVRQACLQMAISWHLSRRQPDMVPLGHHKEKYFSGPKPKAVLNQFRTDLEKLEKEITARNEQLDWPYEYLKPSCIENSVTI

| Structure (SMILES) | Potency |
| --- | --- |
| CC(=O)c1cccc(NC(=O)C(C)OC(=O)/C=C/c2cccs2)c1 (configuration not stated) | inconclusive: 141 µM [inhibitor, partial curve, poor fit] |
| ClCC1=Nc2ccccc2Cc2ccccc21 | inconclusive: 89.1 µM [inhibitor, single point] |
| Cc1c(Cl)c(-c2n[nH]c(=S)n2CC(C)C)nn1C | inconclusive: 89.1 µM [inhibitor, single point] |
| CC(=O)NCCNc1nc2cc(-c3cccc(Cl)c3)sc2c(=O)n1C | inconclusive: 50.1 µM [inhibitor, partial curve, poor fit] |
| COC(=O)c1sccc1S(=O)(=O)Nc1ccc(SC(F)F)cc1 | inconclusive: 50.1 µM [inhibitor, partial curve, poor fit] |
| O=Cc1nc(-c2ccc(Cl)cc2)n2ccccc12 | inconclusive: 6.31 µM [inhibitor, full curve] |
| CCCCC(c1nnnn1C1CCCC1)N1CCN(C2CCCCC2)CC1 (configuration not stated) | inconclusive: 56.2 µM [inhibitor, single point] |
| Clc1nnc(-c2ccccc2)n1C1CC1 | inconclusive: 126 µM [inhibitor, single point] |
| O=C(c1cc(=O)c2cc(Cl)ccc2o1)N(Cc1ccccc1)C1CCS(=O)(=O)C1 (configuration not stated) | inconclusive: 112 µM [inhibitor, partial curve, poor fit] |
| COc1cc(NC(=O)c2nn(C)c(=O)c3ccccc23)cc(OC)c1OC | inactive |
| O=C(N[C@@H](Cn1cc(Cl)c(=O)[nH]c1=O)C(=O)O)C1CC1 | inconclusive: 39.8 µM [inhibitor, single point] |
| CCc1nc2ccc(C(=O)NCCc3ccccn3)cn2c1N(C)CCC(C)C | inconclusive: 2.51 µM [inhibitor, full curve, poor fit] |
| CC(C)C[C@H]1CNC(=O)C(=O)N1C[C@@H]1CCCN1C[C@H](CC(C)C)N1C[C@H](Cc2ccccc2)N(CCc2ccccc2)C(=O)C1=O | inactive |
| CCCCCC(=C/c1ccccc1)/C=N/Nc1nncc2ccccc12 | inactive |
| O=C(COC(=O)CSCC(=O)N1CCCCC1)Nc1ccc(Cl)cc1 | inconclusive: 0.355 µM [inhibitor, full curve, poor fit] |
| OCCNc1nc(N2CCN(Cc3ccccc3)CC2)nc2ccccc12 | inactive |
| Clc1ccc2c(NN=C3CCCCC3)ccnc2c1 | inconclusive: 3.16 µM [inhibitor, full curve, poor fit] |
| N#CC1=C(S)N(c2ccc(F)cc2)C(c2ccco2)NC1=O (configuration not stated) | active: 44.7 µM |
| Cc1nonc1CN1CCN(C(C(=O)O)c2c[nH]c3ccccc23)CC1 (configuration not stated) | inconclusive: 31.6 µM [inhibitor, single point] |
| O=C(O)CN1C(=O)/C(=C\c2cccc(OCc3ccccc3F)c2)SC1=S | active: 39.8 µM |
| COc1cccc(OC)c1C(=O)NC(=S)Nc1cc(-c2nc3ccccc3[nH]2)ccc1Cl | inconclusive: 28.2 µM [inhibitor, partial curve, poor fit] |
| CCN(CC)CC#CCC(O)(c1ccccc1)c1ccccc1 | inactive |
| CCCCNC(=S)NC(=O)c1ccc([N+](=O)[O-])cc1 | inconclusive: 44.7 µM [inhibitor, partial curve, poor fit] |

| Structure (SMILES) | Potency |
| --- | --- |
| COc1ccc(Cl)cc1NC(=O)Cn1ncc2ccc(OC)c(OC)c2c1=O | inconclusive: 4.47 µM [inhibitor, single point] |
| C/C(=N\O)c1ccc(N2C(=O)C3CC=C(Cl)CC3C2=O)cc1 (configuration not stated) | inactive |
| Cc1ccc(/C=C/C(=O)N2CCN(S(=O)(=O)c3c(C)c(C)cc(C)c3C)CC2)o1 | inconclusive: 44.7 µM [inhibitor, partial curve, poor fit] |
| COc1ccc(CNC(=O)COc2cccnc2[N+](=O)[O-])cc1 | inconclusive: 112 µM [inhibitor, partial curve, poor fit] |
| C/C(=N/NC(=S)Nc1cccc(C)c1)c1cccc([N+](=O)[O-])c1 | active: 39.8 µM |
| COCCCNC(=O)Cc1c(C)c2c(O)cc(C)cc2oc1=O | inconclusive: 11.2 µM [inhibitor, partial curve, poor fit] |
| COC(=O)c1ccc(Nc2cc(C)nc3ccc(OC)cc23)cc1 | inactive |
| Cc1ccc(C)c(S(=O)(=O)Nc2nc3ccc(S(N)(=O)=O)cc3s2)c1 | inconclusive: 44.7 µM [inhibitor, partial curve, poor fit] |
| O=C(O)C1CCCN(C(=O)c2ccoc2)C1 (configuration not stated) | inconclusive: 35.5 µM [inhibitor, partial curve, poor fit] |
| CCN1CCC2(CC1)N=C(c1ccc(F)cc1)C(=S)N2 | inconclusive: 31.6 µM [inhibitor, single point] |
| CN(CC(=O)N1CCN(CC(=O)Nc2cccc(F)c2)CC1)Cc1cnn(-c2ccccc2)c1 | inactive |
| Cc1nc(NC(=O)CC(C)C)sc1-c1csc(Nc2ccc(Cl)cc2)n1 | inconclusive: 50.1 µM [inhibitor, partial curve, poor fit] |
| CCN1CCN(c2ccc(NC(=O)COc3ccccc3Cl)cc2)CC1 | inactive |
| COc1cccc(N/N=C(\C#N)S(=O)(=O)C(C)(C)C)c1 | inconclusive: 6.31 µM [inhibitor, full curve, poor fit] |
| Cn1c(=O)c(C(=O)CSc2nnc(Nc3ccccc3)s2)c(N)n(Cc2ccccc2)c1=O | inconclusive: 7.94 µM [inhibitor, full curve, poor fit] |
| CCCNC(=O)N(C)c1nncnc1C(=O)NC | inconclusive: 2.51 µM [inhibitor, single point] |
| COc1ccc([C@H]2CC(=O)C=C(/C=C/c3ccc(Cl)cc3)C2)cc1 | inconclusive: 112 µM [inhibitor, partial curve, poor fit] |
| O=C(O)c1ccccc1/C=N/n1c(C2CCCCC2)n[nH]c1=S | inconclusive: 39.8 µM [inhibitor, partial curve, poor fit] |
| COc1ccccc1-c1cc(NC(C)=O)c2ncc(-c3ccc(S(C)(=O)=O)cc3)n2c1 | inconclusive: 35.5 µM [inhibitor, partial curve, poor fit] |
| CCc1ccc(Nc2n[n+](-c3ccccc3)c(-c3cccc(Cl)c3Cl)s2)cc1 | active: 39.8 µM |
| CC(=O)C1=C(C)NC(SCC(=O)c2ccc(Cl)cc2Cl)=C(C#N)C1c1ccco1 (configuration not stated) | inconclusive: 0.794 µM [inhibitor, full curve] |
| Cc1noc2c(-c3cccnc3NC3CCN(C)CC3)cc(-c3ccc(Cl)cc3)nc12 | inconclusive: 79.4 µM [inhibitor, partial curve, poor fit] |
| c1cnc2c(c1)nc1n2[C@@H](CNC2CCOCC2)COC1 | inactive |

Among those listed so far, three contain a thiophene ring, fused or not.

| Structure (SMILES) | Potency |
| --- | --- |
| CC(=O)c1cccc(NC(=O)C(C)OC(=O)/C=C/c2cccs2)c1 (configuration not stated) | inconclusive: 141 µM [inhibitor, partial curve, poor fit] |
| CC(=O)NCCNc1nc2cc(-c3cccc(Cl)c3)sc2c(=O)n1C | inconclusive: 50.1 µM [inhibitor, partial curve, poor fit] |
| COC(=O)c1sccc1S(=O)(=O)Nc1ccc(SC(F)F)cc1 | inconclusive: 50.1 µM [inhibitor, partial curve, poor fit] |

(next part)

| Structure (SMILES) | Potency |
| --- | --- |
| CN(Cc1ccccc1)c1nc2c(c(=O)[nH]c(=O)n2C)n1C | inactive |
| CN(C)CCCN(C(=O)c1ccc(S(=O)(=O)N(C)Cc2ccccc2)cc1)c1nc2c(F)cccc2s1 | inconclusive: 39.8 µM [inhibitor, partial curve] |
| N#C/C(=C/Nc1ccccc1C(=O)O)C(N)=O | inconclusive: 44.7 µM [inhibitor, single point] |
| Cc1noc(C)c1CSCC(=O)N(C)CC(=O)Nc1cccc(F)c1 | inactive |
| CN(C)c1ccc(N=Cc2cccn2C)cc1 | inconclusive: 39.8 µM [inhibitor, partial curve, poor fit] |
| COc1ccc(CNC(=O)Cc2c(C)c3ccc(OC)c(C)c3oc2=O)cc1OC | inactive |
| CCOc1ccc(NC(=O)c2cc3c(-c4ccccc4F)nn(C)c3s2)cc1 | inconclusive: 112 µM [inhibitor, partial curve, poor fit] |
| C(=C\c1ccccc1)/CN1CCN(C(c2ccnc3ccccc23)c2nnnn2C2CCCC2)CC1 (configuration not stated) | inconclusive: 35.5 µM [inhibitor, partial curve] |
| Cc1nn(Cc2cc(=O)oc3c(C)c(O)ccc23)c(=O)c(C#N)c1C | inactive |
| S=c1[nH]c2ccccc2n1CCOc1ccccc1 | active: 39.8 µM |
| C=Cc1ccc(Cn2c(C(=O)O)c(CNCc3cccs3)c3ccc(C)cc32)cc1 | inconclusive: 112 µM [inhibitor, partial curve, poor fit] |
| CC(C)=CCC1(CO)CCCN(Cc2cscn2)C1 (configuration not stated) | inactive |
| O=Cc1ccc(-c2ccc(I)cc2Cl)o1 | inconclusive: 39.8 µM [inhibitor, partial curve, poor fit] |
| COC(=O)c1ccc(NC(=O)COc2coc(CN3CCc4ccccc43)cc2=O)cc1 | inactive |
| COc1ccccc1-n1cc(-c2ccc(Br)cc2)[nH]c1=S | inconclusive: 44.7 µM [inhibitor, partial curve] |
| CCN1CCN(C(C(=O)NC2CCCCC2)c2cc3ccccc3o2)CC1 (configuration not stated) | inconclusive: 39.8 µM [inhibitor, partial curve] |
| CC(=O)Nc1ccc(-c2csc(NC(=O)c3cc4cnn(C(C)C)c4nc3C)n2)cc1 | inconclusive: 158 µM [inhibitor, single point] |
| Nc1nc(N)nc(-c2ccc(Cl)c(Cl)c2)n1 | inconclusive: 63.1 µM [inhibitor, partial curve, poor fit] |
| Oc1ccc2c(c1)OCC1(O)Cc3cc(O)c(O)cc3C21 (configuration not stated) | inconclusive: 7.08 µM [inhibitor, full curve, poor fit] |
| CC1CCN(C2=NC(=O)/C(=C/c3cccc(O)c3)S2)CC1 | inconclusive: 56.2 µM [inhibitor, partial curve, poor fit] |
| CSc1ncc(Cl)c(C(=O)Nc2ccc(S(=O)(=O)N3CCC(C)CC3)cc2)n1 | inactive |

— PubChem BioAssay AID1671190 (National Center for Advancing Translational Sciences (NCATS), 2021)
